Assay results as given in publication PMC9174988.
Results are given in words; binding and its absence hold for the method and conditions named. Binding seen in cells or lysates may run through a third protein. Binding calls can cover weak binding; strength is not graded here. For some assays here: Sequences can lack the tags named with a protein.

What was measured:
[1] = target: T1, CLN3 (tagged CLN3 expression plasmid) (UniProt Q13286); assay: co-IP; tagged CLN3 or CLN8 expression plasmids used for immunoprecipitation; Western blot of partners; input ~3% of total protein loaded on IPs
T1 sequence: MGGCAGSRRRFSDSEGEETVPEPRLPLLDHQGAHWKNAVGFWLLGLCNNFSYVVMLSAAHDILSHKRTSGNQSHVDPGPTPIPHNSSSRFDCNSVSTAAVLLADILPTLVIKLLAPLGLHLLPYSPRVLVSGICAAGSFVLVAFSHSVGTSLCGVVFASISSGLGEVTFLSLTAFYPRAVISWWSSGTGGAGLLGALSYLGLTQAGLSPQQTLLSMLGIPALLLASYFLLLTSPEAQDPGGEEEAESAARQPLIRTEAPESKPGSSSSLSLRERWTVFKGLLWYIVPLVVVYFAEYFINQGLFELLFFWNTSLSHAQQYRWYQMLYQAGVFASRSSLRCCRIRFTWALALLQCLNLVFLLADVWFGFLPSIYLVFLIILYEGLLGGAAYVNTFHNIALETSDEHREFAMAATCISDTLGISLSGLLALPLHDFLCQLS

[2] = target: T2, hCLN6 (AAV9-hCLN6 transgene) (human) (UniProt Q9NWW5); assay: co-IP; hCLN6 (AAV9-hCLN6 representatives) immunoprecipitation; Western blot of partners; input ~3% of total protein loaded on IPs
T2 sequence: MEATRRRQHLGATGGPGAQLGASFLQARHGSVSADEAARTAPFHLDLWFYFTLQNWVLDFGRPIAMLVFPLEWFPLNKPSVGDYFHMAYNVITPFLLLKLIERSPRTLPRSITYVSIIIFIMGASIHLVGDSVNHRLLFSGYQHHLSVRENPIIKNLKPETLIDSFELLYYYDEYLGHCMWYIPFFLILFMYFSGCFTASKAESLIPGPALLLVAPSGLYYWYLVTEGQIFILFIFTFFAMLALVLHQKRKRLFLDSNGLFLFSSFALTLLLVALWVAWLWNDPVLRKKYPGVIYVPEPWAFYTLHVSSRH

mammalian uncoordinated-18 (in neuroblastoma cells)
binding [1]: binds

mammalian uncoordinated-18 (mouse cortex)
binding [2]: binds
